Measurements taken from the supplement of paper PMC12823440, “Inhibitors supercharge kinase turnover through native proteolytic circuits” (Nature, 2025).
Structures can show the parent of a compound that is named as a salt. Some of the results follow. Hit calls seldom repeat between salt and free forms of one compound.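 Kinases were expressed as nanoluciferase fusions in K562 cells and luminescence was read every 4 h between 2 and 18 h as percent of control, DMSO set to 100% and a positive control to 0%. A time point counts as decreased when the signal drops significantly (2 sigma). The hit call is the authors' own, does not follow from the count of time points alone, and its rule is not shown.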

By UniProt entry, the sequences of proteins in these tests, tags left out. Where a name states a change or a piece, a line headed by the entry shows the natural chain unless it says otherwise.
UniProt P31749: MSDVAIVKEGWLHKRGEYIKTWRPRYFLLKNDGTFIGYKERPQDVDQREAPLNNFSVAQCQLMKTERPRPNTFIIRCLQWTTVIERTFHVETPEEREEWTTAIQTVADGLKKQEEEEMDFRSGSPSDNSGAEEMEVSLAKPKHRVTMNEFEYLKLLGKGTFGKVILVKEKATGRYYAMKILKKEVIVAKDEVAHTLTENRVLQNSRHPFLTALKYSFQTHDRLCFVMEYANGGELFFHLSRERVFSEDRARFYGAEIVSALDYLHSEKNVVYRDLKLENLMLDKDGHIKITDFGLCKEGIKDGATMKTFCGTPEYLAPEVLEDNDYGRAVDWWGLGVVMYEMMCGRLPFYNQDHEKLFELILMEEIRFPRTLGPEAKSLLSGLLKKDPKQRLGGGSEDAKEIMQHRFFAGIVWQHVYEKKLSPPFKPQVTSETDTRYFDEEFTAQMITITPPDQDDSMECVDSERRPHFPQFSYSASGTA
UniProt P10398: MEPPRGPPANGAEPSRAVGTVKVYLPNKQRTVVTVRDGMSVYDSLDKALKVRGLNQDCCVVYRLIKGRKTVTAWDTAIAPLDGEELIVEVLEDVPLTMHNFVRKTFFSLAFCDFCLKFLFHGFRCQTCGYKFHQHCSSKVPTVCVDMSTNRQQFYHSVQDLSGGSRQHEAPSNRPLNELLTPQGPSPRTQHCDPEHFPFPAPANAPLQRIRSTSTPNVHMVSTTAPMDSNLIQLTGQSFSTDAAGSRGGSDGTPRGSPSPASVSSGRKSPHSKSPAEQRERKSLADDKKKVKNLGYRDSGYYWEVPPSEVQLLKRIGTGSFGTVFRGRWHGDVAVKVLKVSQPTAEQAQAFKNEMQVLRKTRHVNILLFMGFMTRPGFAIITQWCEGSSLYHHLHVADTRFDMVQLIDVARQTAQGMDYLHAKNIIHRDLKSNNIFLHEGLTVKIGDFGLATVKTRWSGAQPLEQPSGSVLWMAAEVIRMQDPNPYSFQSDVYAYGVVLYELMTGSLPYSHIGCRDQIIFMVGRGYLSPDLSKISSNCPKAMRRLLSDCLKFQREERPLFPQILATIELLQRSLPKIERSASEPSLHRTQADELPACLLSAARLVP
UniProt O14965: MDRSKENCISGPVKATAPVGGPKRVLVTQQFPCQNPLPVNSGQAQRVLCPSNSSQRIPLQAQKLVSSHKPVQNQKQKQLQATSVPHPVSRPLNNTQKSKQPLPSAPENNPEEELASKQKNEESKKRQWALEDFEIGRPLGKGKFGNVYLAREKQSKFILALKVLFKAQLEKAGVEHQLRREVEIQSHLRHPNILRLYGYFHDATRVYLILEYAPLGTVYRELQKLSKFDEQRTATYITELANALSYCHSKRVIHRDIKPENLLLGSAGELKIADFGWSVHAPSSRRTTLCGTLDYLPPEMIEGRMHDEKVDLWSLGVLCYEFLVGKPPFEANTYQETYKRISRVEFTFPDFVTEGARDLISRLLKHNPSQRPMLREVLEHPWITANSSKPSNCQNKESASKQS
UniProt Q96GD4, whole entry: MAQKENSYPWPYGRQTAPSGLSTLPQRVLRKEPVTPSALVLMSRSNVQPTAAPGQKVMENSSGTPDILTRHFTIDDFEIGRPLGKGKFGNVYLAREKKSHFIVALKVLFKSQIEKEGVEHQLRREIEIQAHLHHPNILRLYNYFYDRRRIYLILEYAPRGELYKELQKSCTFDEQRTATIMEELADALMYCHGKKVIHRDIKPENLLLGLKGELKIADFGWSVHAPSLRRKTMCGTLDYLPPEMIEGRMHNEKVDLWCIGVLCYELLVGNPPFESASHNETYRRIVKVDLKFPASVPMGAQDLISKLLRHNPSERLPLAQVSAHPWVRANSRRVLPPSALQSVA
UniProt Q9UQB9: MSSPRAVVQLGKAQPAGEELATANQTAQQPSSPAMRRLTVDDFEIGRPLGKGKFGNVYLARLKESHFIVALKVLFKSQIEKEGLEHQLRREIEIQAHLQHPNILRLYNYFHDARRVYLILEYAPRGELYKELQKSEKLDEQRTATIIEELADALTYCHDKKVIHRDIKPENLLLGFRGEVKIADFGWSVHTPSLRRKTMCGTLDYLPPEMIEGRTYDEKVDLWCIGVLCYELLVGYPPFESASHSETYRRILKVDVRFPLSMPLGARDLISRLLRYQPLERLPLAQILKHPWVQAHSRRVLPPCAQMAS
UniProt P15056, whole entry, looked up: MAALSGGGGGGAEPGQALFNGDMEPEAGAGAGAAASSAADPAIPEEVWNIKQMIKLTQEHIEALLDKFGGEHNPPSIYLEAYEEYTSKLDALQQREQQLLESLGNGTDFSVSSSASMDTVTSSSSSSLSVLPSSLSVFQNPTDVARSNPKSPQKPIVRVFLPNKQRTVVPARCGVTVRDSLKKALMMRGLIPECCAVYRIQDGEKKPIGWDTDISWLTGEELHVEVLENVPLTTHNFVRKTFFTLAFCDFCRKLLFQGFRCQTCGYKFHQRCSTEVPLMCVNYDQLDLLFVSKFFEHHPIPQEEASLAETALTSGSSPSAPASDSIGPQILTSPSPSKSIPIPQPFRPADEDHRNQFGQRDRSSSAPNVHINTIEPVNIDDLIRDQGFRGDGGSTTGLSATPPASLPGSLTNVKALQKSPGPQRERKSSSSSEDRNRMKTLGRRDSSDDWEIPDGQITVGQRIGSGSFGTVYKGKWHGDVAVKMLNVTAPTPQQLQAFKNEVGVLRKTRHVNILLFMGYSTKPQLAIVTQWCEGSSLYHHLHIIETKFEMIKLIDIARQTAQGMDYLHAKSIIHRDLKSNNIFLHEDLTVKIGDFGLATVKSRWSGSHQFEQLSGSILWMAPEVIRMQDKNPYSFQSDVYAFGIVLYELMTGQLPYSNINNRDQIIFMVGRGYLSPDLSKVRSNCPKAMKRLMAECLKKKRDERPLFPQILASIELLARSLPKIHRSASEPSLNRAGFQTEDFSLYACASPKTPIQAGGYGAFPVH
UniProt Q06187: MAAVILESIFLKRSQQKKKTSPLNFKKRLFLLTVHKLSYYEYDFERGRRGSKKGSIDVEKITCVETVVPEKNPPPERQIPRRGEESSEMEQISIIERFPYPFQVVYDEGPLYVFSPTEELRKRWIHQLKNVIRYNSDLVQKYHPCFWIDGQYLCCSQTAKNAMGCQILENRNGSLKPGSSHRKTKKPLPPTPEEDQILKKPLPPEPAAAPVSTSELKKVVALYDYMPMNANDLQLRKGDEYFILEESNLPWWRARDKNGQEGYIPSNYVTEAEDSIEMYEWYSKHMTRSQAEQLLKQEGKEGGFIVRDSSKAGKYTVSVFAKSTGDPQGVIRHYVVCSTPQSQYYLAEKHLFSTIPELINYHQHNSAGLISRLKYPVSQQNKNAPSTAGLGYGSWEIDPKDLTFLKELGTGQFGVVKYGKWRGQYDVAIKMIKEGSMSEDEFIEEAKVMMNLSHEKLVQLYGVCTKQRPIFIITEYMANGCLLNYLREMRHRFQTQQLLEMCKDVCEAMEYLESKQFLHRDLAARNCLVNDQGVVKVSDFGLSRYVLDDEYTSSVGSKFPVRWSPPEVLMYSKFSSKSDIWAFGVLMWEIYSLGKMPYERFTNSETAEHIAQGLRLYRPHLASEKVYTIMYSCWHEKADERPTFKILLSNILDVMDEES
UniProt Q9UQM7, whole entry: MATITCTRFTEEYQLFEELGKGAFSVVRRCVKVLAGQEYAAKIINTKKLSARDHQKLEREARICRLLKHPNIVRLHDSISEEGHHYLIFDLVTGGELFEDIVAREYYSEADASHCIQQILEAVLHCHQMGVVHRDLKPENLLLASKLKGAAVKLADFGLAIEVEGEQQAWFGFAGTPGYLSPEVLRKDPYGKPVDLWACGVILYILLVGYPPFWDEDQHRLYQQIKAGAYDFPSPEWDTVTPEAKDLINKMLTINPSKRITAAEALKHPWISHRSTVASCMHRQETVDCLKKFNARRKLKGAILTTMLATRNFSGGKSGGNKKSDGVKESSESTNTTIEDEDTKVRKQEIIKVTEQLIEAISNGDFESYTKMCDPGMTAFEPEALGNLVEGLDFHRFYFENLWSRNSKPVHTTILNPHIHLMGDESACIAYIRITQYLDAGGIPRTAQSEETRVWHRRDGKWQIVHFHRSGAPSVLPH
UniProt Q13555: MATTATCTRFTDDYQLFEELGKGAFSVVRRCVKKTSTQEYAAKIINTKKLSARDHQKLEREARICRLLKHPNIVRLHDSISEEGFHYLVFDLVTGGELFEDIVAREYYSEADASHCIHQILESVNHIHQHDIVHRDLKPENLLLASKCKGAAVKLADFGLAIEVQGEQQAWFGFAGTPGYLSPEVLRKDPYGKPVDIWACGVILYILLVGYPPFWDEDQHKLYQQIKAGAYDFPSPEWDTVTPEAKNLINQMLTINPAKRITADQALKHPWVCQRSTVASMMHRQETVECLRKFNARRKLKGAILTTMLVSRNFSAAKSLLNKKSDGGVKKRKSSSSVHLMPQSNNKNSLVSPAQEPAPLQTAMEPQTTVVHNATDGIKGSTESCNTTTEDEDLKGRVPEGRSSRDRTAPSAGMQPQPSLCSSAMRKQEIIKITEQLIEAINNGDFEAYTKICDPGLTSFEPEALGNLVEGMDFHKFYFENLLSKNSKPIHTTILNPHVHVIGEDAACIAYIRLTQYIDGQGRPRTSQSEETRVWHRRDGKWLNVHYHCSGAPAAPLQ
UniProt Q15131: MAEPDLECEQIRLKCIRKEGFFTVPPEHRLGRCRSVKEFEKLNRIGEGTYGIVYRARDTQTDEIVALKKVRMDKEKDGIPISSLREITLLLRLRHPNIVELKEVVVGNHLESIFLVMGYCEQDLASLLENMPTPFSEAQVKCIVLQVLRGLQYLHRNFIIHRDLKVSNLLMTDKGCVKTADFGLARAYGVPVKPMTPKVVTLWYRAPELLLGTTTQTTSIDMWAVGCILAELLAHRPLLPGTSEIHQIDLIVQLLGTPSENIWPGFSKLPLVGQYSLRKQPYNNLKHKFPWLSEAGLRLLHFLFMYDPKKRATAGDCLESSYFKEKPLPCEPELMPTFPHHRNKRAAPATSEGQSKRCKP
UniProt Q00526: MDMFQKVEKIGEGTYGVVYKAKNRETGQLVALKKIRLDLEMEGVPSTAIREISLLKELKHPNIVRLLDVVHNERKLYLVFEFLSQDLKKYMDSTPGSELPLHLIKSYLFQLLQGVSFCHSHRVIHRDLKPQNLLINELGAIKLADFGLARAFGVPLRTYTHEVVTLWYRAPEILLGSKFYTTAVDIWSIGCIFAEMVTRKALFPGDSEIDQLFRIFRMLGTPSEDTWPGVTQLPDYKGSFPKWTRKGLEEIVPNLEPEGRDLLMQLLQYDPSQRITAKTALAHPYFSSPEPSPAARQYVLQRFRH
UniProt P11802: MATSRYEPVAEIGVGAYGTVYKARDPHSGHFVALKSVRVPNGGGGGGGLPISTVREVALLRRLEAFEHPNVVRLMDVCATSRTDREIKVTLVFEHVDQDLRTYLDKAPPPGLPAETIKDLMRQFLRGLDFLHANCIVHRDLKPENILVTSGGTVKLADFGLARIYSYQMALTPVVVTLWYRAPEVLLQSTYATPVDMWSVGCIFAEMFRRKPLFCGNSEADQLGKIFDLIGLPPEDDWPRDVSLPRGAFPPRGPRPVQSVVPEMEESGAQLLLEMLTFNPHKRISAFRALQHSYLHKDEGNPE
UniProt Q00535, whole entry, looked up: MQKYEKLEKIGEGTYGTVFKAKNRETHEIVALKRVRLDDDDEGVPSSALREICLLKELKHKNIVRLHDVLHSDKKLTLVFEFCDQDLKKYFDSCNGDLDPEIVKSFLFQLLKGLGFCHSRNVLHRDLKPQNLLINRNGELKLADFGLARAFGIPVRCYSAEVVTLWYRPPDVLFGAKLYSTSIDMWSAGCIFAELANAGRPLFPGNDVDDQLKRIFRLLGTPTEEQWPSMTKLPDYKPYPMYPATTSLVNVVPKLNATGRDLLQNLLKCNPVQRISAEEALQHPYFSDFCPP
UniProt Q00534, whole entry: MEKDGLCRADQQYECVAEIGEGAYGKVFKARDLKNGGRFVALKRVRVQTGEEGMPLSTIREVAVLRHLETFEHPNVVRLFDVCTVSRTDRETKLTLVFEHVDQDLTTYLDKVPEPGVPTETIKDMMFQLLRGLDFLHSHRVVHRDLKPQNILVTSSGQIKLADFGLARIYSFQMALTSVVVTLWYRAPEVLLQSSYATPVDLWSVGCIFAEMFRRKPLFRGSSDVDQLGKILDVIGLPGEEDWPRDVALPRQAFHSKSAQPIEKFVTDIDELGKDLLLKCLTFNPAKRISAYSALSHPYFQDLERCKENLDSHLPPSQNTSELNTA

Key:
Assay in all cases: kinase-Nluc reporter destabilization hit call (1 = scored as downregulated) (binary); higher = compound decreases kinase abundance
Conditions in all cases: K562; 2-18 h
ABL1 = ABL1 (UniProt P00519)
AKT1 = AKT1 (UniProt P31749)
ALK = ALK (UniProt Q9UM73)
ARAF = ARAF (UniProt P10398)
AURKA = AURKA (UniProt O14965)
AURKB = AURKB (UniProt Q96GD4)
AURKC = AURKC (UniProt Q9UQB9)
BLK = BLK (UniProt P51451)
BMX = BMX (UniProt P51813)
BRAF = BRAF (UniProt P15056)
BRAF_V600E = system: BRAF_V600E
BTK = BTK (UniProt Q06187)
CAMK2A = CAMK2A (UniProt Q9UQM7)
CAMK2G = CAMK2G (UniProt Q13555)
CDK10 = CDK10 (UniProt Q15131)
CDK2 = CDK2 (UniProt P24941)
CDK3 = CDK3 (UniProt Q00526)
CDK4 = CDK4 (UniProt P11802)
CDK5 = CDK5 (UniProt Q00535)
CDK6 = CDK6 (UniProt Q00534)

Row | Structure (SMILES) | kinase-Nluc reporter destabilization hit call (ABL1) | kinase-Nluc reporter destabilization hit call (AKT1) | kinase-Nluc reporter destabilization hit call (ALK) | kinase-Nluc reporter destabilization hit call (ARAF) | kinase-Nluc reporter destabilization hit call (AURKA) | kinase-Nluc reporter destabilization hit call (AURKB) | kinase-Nluc reporter destabilization hit call (AURKC) | kinase-Nluc reporter destabilization hit call (BLK) | kinase-Nluc reporter destabilization hit call (BMX) | kinase-Nluc reporter destabilization hit call (BRAF) | kinase-Nluc reporter destabilization hit call (BRAF_V600E) | kinase-Nluc reporter destabilization hit call (BTK) | kinase-Nluc reporter destabilization hit call (CAMK2A) | kinase-Nluc reporter destabilization hit call (CAMK2G) | kinase-Nluc reporter destabilization hit call (CDK10) | kinase-Nluc reporter destabilization hit call (CDK2) | kinase-Nluc reporter destabilization hit call (CDK3) | kinase-Nluc reporter destabilization hit call (CDK4) | kinase-Nluc reporter destabilization hit call (CDK5) | kinase-Nluc reporter destabilization hit call (CDK6)
1 | O=C(O)[C@H]1O[C@@H](Oc2cc3oc(-c4ccc(O)cc4)cc(=O)c3c(O)c2O)[C@H](O)[C@@H](O)[C@@H]1O [Scutellarin] (10 µM) | inactive: 0 | inactive: 0 | inactive: 0 | inactive: 0 | inactive: 0 | inactive: 0 | inactive: 0 | inactive: 0 | inactive: 0 | inactive: 0 | inactive: 0 | inactive: 0 | inactive: 0 | inactive: 0 | inactive: 0 | inactive: 0 | inactive: 0 | inactive: 0 | inactive: 0 | inactive: 0
2 | CC(C)n1c([C@H](C)Nc2ncnc(N)c2C#N)cc2cccc(-c3ccc(=O)n(C)c3)c2c1=O (10 µM) | inactive: 0 | inactive: 0 | inactive: 0 | inactive: 0 | inactive: 0 | inactive: 0 | inactive: 0 | inactive: 0 | inactive: 0 | inactive: 0 | inactive: 0 | inactive: 0 | inactive: 0 | inactive: 0 | inactive: 0 | inactive: 0 | inactive: 0 | inactive: 0 | inactive: 0 | inactive: 0
3 | CCCn1/c(=N/C(=O)c2cccc(C(N)=O)c2)[nH]c2ccccc21 [Takinib] (10 µM) | inactive: 0 | inactive: 0 | inactive: 0 | inactive: 0 | inactive: 0 | inactive: 0 | inactive: 0 | inactive: 0 | inactive: 0 | inactive: 0 | inactive: 0 | inactive: 0 | inactive: 0 | inactive: 0 | inactive: 0 | inactive: 0 | inactive: 0 | inactive: 0 | inactive: 0 | inactive: 0
4 | CO[C@H]1CC[C@H](N2C(=O)CNc3ncc(-c4ccc(C(C)(C)O)nc4)nc32)CC1 (2.5 µM) | inactive: 0 | inactive: 0 | inactive: 0 | inactive: 0 | inactive: 0 | inactive: 0 | inactive: 0 | inactive: 0 | inactive: 0 | inactive: 0 | inactive: 0 | inactive: 0 | inactive: 0 | inactive: 0 | inactive: 0 | inactive: 0 | inactive: 0 | inactive: 0 | inactive: 0 | inactive: 0
5 | CC(O)(C#Cc1ccc2c(c1)N(c1nc(N)ncc1Cl)CC2)c1nccs1 (stereo not given) (2.5 µM) | inactive: 0 | inactive: 0 | inactive: 0 | inactive: 0 | inactive: 0 | inactive: 0 | inactive: 0 | inactive: 0 | inactive: 0 | inactive: 0 | inactive: 0 | inactive: 0 | inactive: 0 | inactive: 0 | inactive: 0 | inactive: 0 | inactive: 0 | inactive: 0 | inactive: 0 | inactive: 0
6 | Cc1cc(CSc2ccccc2C(=O)NCCNc2ccc(C(F)(F)F)cc2[N+](=O)[O-])on1 (10 µM) | inactive: 0 | inactive: 0 | inactive: 0 | inactive: 0 | inactive: 0 | inactive: 0 | inactive: 0 | inactive: 0 | inactive: 0 | inactive: 0 | inactive: 0 | inactive: 0 | inactive: 0 | inactive: 0 | inactive: 0 | inactive: 0 | inactive: 0 | inactive: 0 | inactive: 0 | inactive: 0
7 | COc1cc2ncnc(Oc3ccc(CC(=O)Nc4cnn(C(C)C)c4)cc3)c2cc1OC (10 µM) | inactive: 0 | inactive: 0 | inactive: 0 | inactive: 0 | inactive: 0 | inactive: 0 | inactive: 0 | inactive: 0 | inactive: 0 | inactive: 0 | inactive: 0 | inactive: 0 | inactive: 0 | inactive: 0 | inactive: 0 | inactive: 0 | inactive: 0 | inactive: 0 | inactive: 0 | inactive: 0
8 | COC(=O)[C@H](CCSC)NC(=O)c1ccc(NC[C@@H](N)CS)cc1-c1ccccc1 [FTI-277 (hydrochloride)] (10 µM) | inactive: 0 | inactive: 0 | inactive: 0 | inactive: 0 | inactive: 0 | inactive: 0 | inactive: 0 | inactive: 0 | inactive: 0 | inactive: 0 | inactive: 0 | inactive: 0 | inactive: 0 | inactive: 0 | inactive: 0 | inactive: 0 | inactive: 0 | inactive: 0 | inactive: 0 | inactive: 0
9 | O=c1cc(-c2ccccc2)oc2cc(O[C@@H]3O[C@H](CO[C@@H]4O[C@H](CO)[C@@H](O)[C@H](O)[C@H]4O)[C@@H](O)[C@H](O)[C@H]3O)c(O)c(O)c12 [Oroxin B] (10 µM) | inactive: 0 | inactive: 0 | inactive: 0 | inactive: 0 | inactive: 0 | inactive: 0 | inactive: 0 | inactive: 0 | inactive: 0 | inactive: 0 | inactive: 0 | inactive: 0 | inactive: 0 | inactive: 0 | inactive: 0 | inactive: 0 | inactive: 0 | inactive: 0 | inactive: 0 | inactive: 0
10 | O=C(NCCN1CCOCC1)Nc1nc2ccc(Sc3nnc4ccc(-c5ccc(F)cc5)nn34)cc2s1 (10 µM) | inactive: 0 | inactive: 0 | inactive: 0 | inactive: 0 | inactive: 0 | inactive: 0 | inactive: 0 | inactive: 0 | inactive: 0 | inactive: 0 | inactive: 0 | inactive: 0 | inactive: 0 | inactive: 0 | inactive: 0 | inactive: 0 | inactive: 0 | inactive: 0 | inactive: 0 | inactive: 0
11 | Cc1cc(Nc2cc(N3CCN(C)CC3)nc(Nc3ccc([N+](=O)[O-])cc3)n2)n[nH]1 (2.5 µM) | inactive: 0 | inactive: 0 | inactive: 0 | inactive: 0 | inactive: 0 | inactive: 0 | inactive: 0 | inactive: 0 | inactive: 0 | inactive: 0 | inactive: 0 | inactive: 0 | inactive: 0 | inactive: 0 | inactive: 0 | inactive: 0 | inactive: 0 | inactive: 0 | inactive: 0 | inactive: 0
12 | NS(=O)(=O)c1ccc(Nc2nc(-c3cccc(-c4ccccc4)c3)c3[nH]cnc3n2)cc1 (10 µM) | inactive: 0 | inactive: 0 | inactive: 0 | inactive: 0 | inactive: 0 | inactive: 0 | inactive: 0 | inactive: 0 | inactive: 0 | inactive: 0 | inactive: 0 | inactive: 0 | inactive: 0 | inactive: 0 | inactive: 0 | inactive: 0 | inactive: 0 | inactive: 0 | inactive: 0 | inactive: 0
13 | Nc1ncc(-c2ccnc(Nc3ccncc3)n2)c(CC2CC2)n1 (10 µM) | inactive: 0 | inactive: 0 | inactive: 0 | inactive: 0 | inactive: 0 | inactive: 0 | inactive: 0 | inactive: 0 | inactive: 0 | inactive: 0 | inactive: 0 | inactive: 0 | inactive: 0 | inactive: 0 | inactive: 0 | inactive: 0 | inactive: 0 | inactive: 0 | inactive: 0 | inactive: 0
14 | Cc1cccc(/C=N/Nc2cc(N3CCOCC3)n3nc(-c4ccncc4)cc3n2)c1 (10 µM) | inactive: 0 | inactive: 0 | inactive: 0 | inactive: 0 | inactive: 0 | inactive: 0 | inactive: 0 | inactive: 0 | inactive: 0 | inactive: 0 | inactive: 0 | inactive: 0 | inactive: 0 | inactive: 0 | inactive: 0 | inactive: 0 | inactive: 0 | inactive: 0 | inactive: 0 | inactive: 0
15 | Cc1ccc(NC(=O)Nc2cc(C(F)(F)F)ccc2F)cc1Nc1ccc2c(c1)NC(=O)/C2=C\c1ccc[nH]1 (2.5 µM) | inactive: 0 | inactive: 0 | inactive: 0 | inactive: 0 | inactive: 0 | inactive: 0 | inactive: 0 | inactive: 0 | inactive: 0 | inactive: 0 | inactive: 0 | inactive: 0 | inactive: 0 | inactive: 0 | inactive: 0 | inactive: 0 | inactive: 0 | inactive: 0 | inactive: 0 | inactive: 0
16 | CCCCCC(=O)N[C@@H](Cc1ccc(O)cc1)C(=O)OC (10 µM) | inactive: 0 | inactive: 0 | inactive: 0 | inactive: 0 | inactive: 0 | inactive: 0 | inactive: 0 | inactive: 0 | inactive: 0 | inactive: 0 | inactive: 0 | inactive: 0 | inactive: 0 | inactive: 0 | inactive: 0 | inactive: 0 | inactive: 0 | inactive: 0 | inactive: 0 | inactive: 0
17 | NC(=O)c1cnc(-c2ccc(C3(N)CCC3)cc2)c(-c2ccccc2)c1 (10 µM) | inactive: 0 | inactive: 0 | inactive: 0 | inactive: 0 | inactive: 0 | inactive: 0 | inactive: 0 | inactive: 0 | inactive: 0 | inactive: 0 | inactive: 0 | inactive: 0 | inactive: 0 | inactive: 0 | inactive: 0 | inactive: 0 | inactive: 0 | inactive: 0 | inactive: 0 | inactive: 0
18 | NCC1CCC(CNc2nc(NCc3ccccc3OC(F)(F)F)ncc2[N+](=O)[O-])CC1 (stereo not given) [PKC-theta inhibitor] (10 µM) | active: 1 | inactive: 0 | inactive: 0 | inactive: 0 | inactive: 0 | inactive: 0 | inactive: 0 | inactive: 0 | inactive: 0 | inactive: 0 | inactive: 0 | inactive: 0 | inactive: 0 | inactive: 0 | inactive: 0 | inactive: 0 | inactive: 0 | inactive: 0 | inactive: 0 | inactive: 0

Just kinase-Nluc reporter destabilization hit call (BLK) (2 entries from above):
Row	Structure (SMILES)	kinase-Nluc reporter destabilization hit call (BLK)
1	O=C(O)[C@H]1O[C@@H](Oc2cc3oc(-c4ccc(O)cc4)cc(=O)c3c(O)c2O)[C@H](O)[C@@H](O)[C@@H]1O [Scutellarin] (10 µM)	inactive: 0
2	CC(C)n1c([C@H](C)Nc2ncnc(N)c2C#N)cc2cccc(-c3ccc(=O)n(C)c3)c2c1=O (10 µM)	inactive: 0
